Test results as given in EP4810498A1, “MEDICATION FOR TREATING SEVERE MALARIA AND SYNTHESIS METHOD THEREFOR” (Institute of Chinese Materia Medica, China Academy of …, priority 2023, dated 2025).
Some entries share one result that the patent states for a list of compounds.

System: Plasmodium falciparum 3D7
Assay: SYBR Green assay, growth inhibition of Plasmodium falciparum cultured in vitro
Assay type: cell-based
Details: Plasmodium falciparum standard strain 3D7, cultured for 72 h
Experimental: Plasmodium falciparum in the ring stage was synchronized. Smearing was carried out and the infection rate was counted. The synchronized parasitized red blood cells, healthy red blood cells and mediums were matched in a reasonable ratio, resulting in an in vitro culture system of plasmodia (ring bodies, 2 to 4 hours-old) with a hematocrit of 2% and an infection rate of 1%. […] A1-A10 was paved with 25 µl of drugs (with 8 complex wells for each drug) and mixed evenly, and then diluted in multiple proportions (Ax-Hx). Except for A12-H12, 50 µL of a plasmodium culture solution was spread in all the other wells; and A12-H12 was spread with 50 µl of healthy red blood cells (in the medium with a hematocrit of 2%). […] 100 µl of a lysis buffer was added to each of the wells and put into a drawer to avoid light for 1 h.
In this experiment, SYBR Green assay was used to determine the median inhibitory concentration (IC50) value of the drug for treating Plasmodium falciparum 3D7. Nonlinear regression was used to calculate the value by means of software graphpad prism 8.0 (the value was equal to average value plus or minus standard error), and a four-parameter logistic fitting curve was used. Each value in the curve was equal to average value plus or minus standard error in eight biological repetitive experiments.

SMILES: Cc1nc(C)c(COC(=O)C2CCN(CC(=O)OC3OC4OC5(C)CCC6C(C)CCC(C3C)C46OO5)CC2)nc1C [Compound Ia-9, (3,5,6-trimethylpyrazine-2-yl) methyl 1-(2-oxy-2-(((3R, 5aS, 6R, 9R, 10S, 12R, 12aR)-3,6,9-trimethyldecahydro-12H-3, 12-epoxy [1, 2]dioxacycloheptane-10-yl)oxy)ethyl) piperidine-4-formate]
- IC50: significant inhibitory effects
